# Assay results: paper doi:10.1101/2021.08.17.456605
# No constants are given. Whether binding was seen depends on the method and setting. Binding can be weak; no strength is given. Sequences can lack the tags named with a protein.
# B1: Schizosaccharomyces pombe Vps20 (protein, UniProt O94318 1-226)
# chain: MGVNSSKINDKDRSILSIKEQRDKLLRYSKRLEKIEQLEIDIARKCLRDSDKRGALRALKAKKLYSGLITQTYGQLGNIEQLLSTIEFTLIQKDVMFGLQEGTNLIRQLQADMPLERVGRICNDRDEAMSYVDEVNDMLQGRMSRDQEDEIQEELDSLIREQEDEKVKDLEKPGFTPSTGVDVLPSVPLKNAIPSLDESFPKAASVSNTSSAVVIDEELRKDPVLG
# Columns and labels:
# Test in all cases: two-hybrid
# [1] = target: T1, Schizosaccharomyces pombe Vps25 (Schizosaccharomyces pombe) (UniProt O74967)
# T1 sequence: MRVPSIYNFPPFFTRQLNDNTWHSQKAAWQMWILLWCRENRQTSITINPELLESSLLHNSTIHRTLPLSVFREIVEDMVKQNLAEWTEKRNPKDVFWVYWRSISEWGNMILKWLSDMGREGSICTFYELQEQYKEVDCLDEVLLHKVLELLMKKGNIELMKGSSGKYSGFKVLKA
# [2] = target: Schizosaccharomyces pombe Vps32 (Schizosaccharomyces pombe)
# [3] = target: Schizosaccharomyces pombe Vps22 (Schizosaccharomyces pombe)
Molecule,binding [1],binding [2],binding [3]
Schizosaccharomyces pombe Vps22,binds,–,–
B1,–,binds,binds
